Source: publication PMC6256988
No constants are given. Whether binding was seen depends on the method and setting. For part of these data: Binding seen in cells or lysates may run through a third protein.

Protein sequences, listed by entry. Tags and fused reporters are not part of them. Residues count along the entry.
UniProt P02787, residues 20-698: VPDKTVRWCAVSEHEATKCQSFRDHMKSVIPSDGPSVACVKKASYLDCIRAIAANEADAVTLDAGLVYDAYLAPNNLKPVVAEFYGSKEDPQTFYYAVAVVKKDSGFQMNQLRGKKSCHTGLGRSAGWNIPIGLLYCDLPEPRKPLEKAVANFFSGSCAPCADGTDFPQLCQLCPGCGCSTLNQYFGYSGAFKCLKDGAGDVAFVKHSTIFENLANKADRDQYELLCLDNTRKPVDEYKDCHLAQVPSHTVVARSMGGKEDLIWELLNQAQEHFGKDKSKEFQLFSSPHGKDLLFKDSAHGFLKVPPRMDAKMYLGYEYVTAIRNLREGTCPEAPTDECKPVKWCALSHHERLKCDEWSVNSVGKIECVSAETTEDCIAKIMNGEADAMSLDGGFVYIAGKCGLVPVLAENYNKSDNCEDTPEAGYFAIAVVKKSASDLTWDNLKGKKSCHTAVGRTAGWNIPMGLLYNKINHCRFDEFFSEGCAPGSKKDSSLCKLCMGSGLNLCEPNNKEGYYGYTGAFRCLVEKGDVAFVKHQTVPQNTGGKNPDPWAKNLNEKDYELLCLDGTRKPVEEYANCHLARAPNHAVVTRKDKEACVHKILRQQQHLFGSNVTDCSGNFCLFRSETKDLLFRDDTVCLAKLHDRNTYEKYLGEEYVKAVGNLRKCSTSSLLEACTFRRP
UniProt Q96RR4: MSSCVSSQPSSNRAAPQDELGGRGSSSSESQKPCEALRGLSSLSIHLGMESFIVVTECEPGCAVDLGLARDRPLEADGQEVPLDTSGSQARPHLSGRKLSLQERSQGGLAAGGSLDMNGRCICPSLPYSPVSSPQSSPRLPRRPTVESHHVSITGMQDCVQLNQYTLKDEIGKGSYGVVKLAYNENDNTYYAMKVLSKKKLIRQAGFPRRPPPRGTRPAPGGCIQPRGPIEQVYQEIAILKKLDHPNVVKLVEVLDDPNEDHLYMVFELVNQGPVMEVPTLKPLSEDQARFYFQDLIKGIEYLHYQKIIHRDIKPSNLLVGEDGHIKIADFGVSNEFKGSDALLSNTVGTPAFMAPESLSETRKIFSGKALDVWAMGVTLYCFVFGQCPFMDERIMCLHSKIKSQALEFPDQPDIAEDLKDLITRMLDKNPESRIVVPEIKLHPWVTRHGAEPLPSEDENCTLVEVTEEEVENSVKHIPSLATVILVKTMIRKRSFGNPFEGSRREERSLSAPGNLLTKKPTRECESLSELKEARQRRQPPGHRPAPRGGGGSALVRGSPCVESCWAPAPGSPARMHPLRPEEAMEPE

How the values were obtained:
[1] = target: Flag-tagged transferrin (Human Transferrin full length, N-terminal Flag tag) (human) (UniProt P02787); experiment: native gel or EMSA; BN-PAGE (4-15% gradient) followed by second-dimension SDS-PAGE and immunoblot; lysates in PBS with 1.5% n-dodecyl beta-D-maltoside; vertical alignment of complexes compared, wild-type against CaMKK2 KO
[2] = target: Flag-tagged transferrin (Human Transferrin full length, N-terminal Flag tag) (human) (UniProt P02787); experiment: cross-linking; Flag-TF-expressing HEK293 cells cross-linked with 2% paraformaldehyde in PBS for 10 min; gel mobility shift by SDS-PAGE and immunoblot for CaMKK2 and TF
[3] = target: Flag-tagged transferrin (Human Transferrin full length, N-terminal Flag tag) (human) (UniProt P02787); experiment: co-IP; Flag-TF immunoprecipitated from HEK293 lysates (PBS, 1% IGPAL630) with anti-Flag antibody on Dynabeads protein-G overnight, washed thrice; immunoblot with anti-TF and anti-CaMKK2

Measured: binding

Ca2+/calmodulin-dependent protein kinase kinase 2 (endogenous, HEK293) (from UniProt Q96RR4 1-588) (enzyme)
no binding: all assays above
